Reference: the supplement of paper PMC4604168 (melanoma cell lines)
Some of the results follow. Repeats are few or missing, and single values can be far off.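 The apoptosis fraction was the count of cleaved-PARP antibody-stained nuclei relative to all DNA-stained nuclei, imaged in 1,536-well plates. Screening doses were set so most cells survived, and baseline and induced cleaved-PARP levels vary greatly across cell lines.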

These molecules were tested on MeWo (assay: cleaved PARP positive nuclei fraction relative to DMSO control; melanoma cells; higher = more apoptosis). Conditions: library dose: low library concentration; 72 h.

| Compound | cleaved PARP positive nuclei fraction |
| --- | --- |
| CO[C@H]1C[C@@H]2CC[C@@H](C)[C@@](O)(O2)C(=O)C(=O)N2CCCC[C@H]2C(=O)O[C@H]([C@H](C)C[C@@H]2CC[C@@H](OCCO)[C@H](OC)C2)CC(=O)[C@H](C)/C=C(\C)[C@@H](O)[C@@H](OC)C(=O)[C@H](C)C[C@H](C)/C=C/C=C/C=C/1C [everolimus] + Cc1cc([N+](=O)[O-])ccc1NS(=O)(=O)c1cc(Cl)ccc1Cl [FH535] (first compound 0.02 µM, partner dose 1 µM) | 168% |
| CO[C@H]1C[C@@H]2CC[C@@H](C)[C@@](O)(O2)C(=O)C(=O)N2CCCC[C@H]2C(=O)O[C@H]([C@H](C)C[C@@H]2CC[C@@H](OCCO)[C@H](OC)C2)CC(=O)[C@H](C)/C=C(\C)[C@@H](O)[C@@H](OC)C(=O)[C@H](C)C[C@H](C)/C=C/C=C/C=C/1C [everolimus] + O=C(O)c1ccc(-c2c[nH]c3ncc(-c4ccccc4)cc23)cc1C1CCCC1 [GSK650394] (first compound 0.02 µM, partner dose 0.16 µM) | 188% |
| CO[C@H]1C[C@@H]2CC[C@@H](C)[C@@](O)(O2)C(=O)C(=O)N2CCCC[C@H]2C(=O)O[C@H]([C@H](C)C[C@@H]2CC[C@@H](OCCO)[C@H](OC)C2)CC(=O)[C@H](C)/C=C(\C)[C@@H](O)[C@@H](OC)C(=O)[C@H](C)C[C@H](C)/C=C/C=C/C=C/1C [everolimus] + COc1ccc(COc2ccc(Cc3cnc(N)nc3N)cc2OC)cc1 [GW2580] (first compound 0.02 µM, partner dose 1 µM) | 32.3% |
| CO[C@H]1C[C@@H]2CC[C@@H](C)[C@@](O)(O2)C(=O)C(=O)N2CCCC[C@H]2C(=O)O[C@H]([C@H](C)C[C@@H]2CC[C@@H](OCCO)[C@H](OC)C2)CC(=O)[C@H](C)/C=C(\C)[C@@H](O)[C@@H](OC)C(=O)[C@H](C)C[C@H](C)/C=C/C=C/C=C/1C [everolimus] + O=S(=O)(c1ccccc1)N(CC(F)(F)F)c1ccc(C(O)(C(F)(F)F)C(F)(F)F)cc1 [T0901317] (first compound 0.02 µM, partner dose 1.4 µM) | 68.7% |
| Cn1c(=O)n(-c2ccc(C(C)(C)C#N)cc2)c2c3cc(-c4cnc5ccccc5c4)ccc3ncc21 + CN1CCN(c2ccc3nc(-c4c(N)c5c(F)cccc5[nH]c4=O)[nH]c3c2)CC1 [Dovitinib] (first compound 0.004 µM, partner dose 0.1 µM) | 132% |
| CO[C@H]1C[C@@H]2CC[C@@H](C)[C@@](O)(O2)C(=O)C(=O)N2CCCC[C@H]2C(=O)O[C@H]([C@H](C)C[C@@H]2CC[C@@H](OCCO)[C@H](OC)C2)CC(=O)[C@H](C)/C=C(\C)[C@@H](O)[C@@H](OC)C(=O)[C@H](C)C[C@H](C)/C=C/C=C/C=C/1C [everolimus] + COc1cc(Nc2ncc(F)c(Nc3ccc4c(n3)NC(=O)C(C)(C)O4)n2)cc(OC)c1OC [Tamatinib] (first compound 0.02 µM, partner dose 0.4 µM) | 105% |
| CO[C@H]1C[C@@H]2CC[C@@H](C)[C@@](O)(O2)C(=O)C(=O)N2CCCC[C@H]2C(=O)O[C@H]([C@H](C)C[C@@H]2CC[C@@H](OCCO)[C@H](OC)C2)CC(=O)[C@H](C)/C=C(\C)[C@@H](O)[C@@H](OC)C(=O)[C@H](C)C[C@H](C)/C=C/C=C/C=C/1C [everolimus] + CO[C@@H]1[C@H](N(C)C(=O)c2ccccc2)C[C@H]2O[C@]1(C)n1c3ccccc3c3c4c(c5c6ccccc6n2c5c31)C(=O)NC4 [Midostaurin] (first compound 0.02 µM, partner dose 0.08 µM) | 52.7% |
| CO[C@H]1C[C@@H]2CC[C@@H](C)[C@@](O)(O2)C(=O)C(=O)N2CCCC[C@H]2C(=O)O[C@H]([C@H](C)C[C@@H]2CC[C@@H](OCCO)[C@H](OC)C2)CC(=O)[C@H](C)/C=C(\C)[C@@H](O)[C@@H](OC)C(=O)[C@H](C)C[C@H](C)/C=C/C=C/C=C/1C [everolimus] + CCN(CC)CCCCNc1ncc2cc(-c3cc(OC)cc(OC)c3)c(NC(=O)NC(C)(C)C)nc2n1 [PD173074] (first compound 0.02 µM, partner dose 0.1 µM) | 109% |
| CO[C@H]1C[C@@H]2CC[C@@H](C)[C@@](O)(O2)C(=O)C(=O)N2CCCC[C@H]2C(=O)O[C@H]([C@H](C)C[C@@H]2CC[C@@H](OCCO)[C@H](OC)C2)CC(=O)[C@H](C)/C=C(\C)[C@@H](O)[C@@H](OC)C(=O)[C@H](C)C[C@H](C)/C=C/C=C/C=C/1C [everolimus] + Cc1cc(N2CCOCC2)cc2[nH]c(-c3c(NC[C@@H](O)c4cccc(Cl)c4)cc[nH]c3=O)nc12 [BMS536924] (first compound 0.02 µM, partner dose 0.2 µM) | 153% |
| CO[C@H]1C[C@@H]2CC[C@@H](C)[C@@](O)(O2)C(=O)C(=O)N2CCCC[C@H]2C(=O)O[C@H]([C@H](C)C[C@@H]2CC[C@@H](OCCO)[C@H](OC)C2)CC(=O)[C@H](C)/C=C(\C)[C@@H](O)[C@@H](OC)C(=O)[C@H](C)C[C@H](C)/C=C/C=C/C=C/1C [everolimus] + Cn1cc(/C=C2\C(=O)Nc3cccnc32)c2ccccc21 [GW441756] (first compound 0.02 µM, partner dose 0.4 µM) | 55.1% |
| CO[C@H]1C[C@@H]2CC[C@@H](C)[C@@](O)(O2)C(=O)C(=O)N2CCCC[C@H]2C(=O)O[C@H]([C@H](C)C[C@@H]2CC[C@@H](OCCO)[C@H](OC)C2)CC(=O)[C@H](C)/C=C(\C)[C@@H](O)[C@@H](OC)C(=O)[C@H](C)C[C@H](C)/C=C/C=C/C=C/1C [everolimus] + Cn1c(Nc2ccc(C(F)(F)F)cc2)nc2cc(Oc3ccnc(-c4ncc(C(F)(F)F)[nH]4)c3)ccc21 [CHIR265] (first compound 0.02 µM, partner dose 0.08 µM) | 143% |
| CO[C@H]1C[C@@H]2CC[C@@H](C)[C@@](O)(O2)C(=O)C(=O)N2CCCC[C@H]2C(=O)O[C@H]([C@H](C)C[C@@H]2CC[C@@H](OCCO)[C@H](OC)C2)CC(=O)[C@H](C)/C=C(\C)[C@@H](O)[C@@H](OC)C(=O)[C@H](C)C[C@H](C)/C=C/C=C/C=C/1C [everolimus] + COc1cc2ncnc(Nc3ccc(Oc4ccccc4)cc3)c2cc1OC [SrcI1] (first compound 0.02 µM, partner dose 2 µM) | 110% |
| CO[C@H]1C[C@@H]2CC[C@@H](C)[C@@](O)(O2)C(=O)C(=O)N2CCCC[C@H]2C(=O)O[C@H]([C@H](C)C[C@@H]2CC[C@@H](OCCO)[C@H](OC)C2)CC(=O)[C@H](C)/C=C(\C)[C@@H](O)[C@@H](OC)C(=O)[C@H](C)C[C@H](C)/C=C/C=C/C=C/1C [everolimus] + CN(NC(=O)CC(=O)NN(C)C(=S)c1ccccc1)C(=S)c1ccccc1 [STA4783] (first compound 0.02 µM, partner dose 0.006 µM) | 72.7% |
| CO[C@H]1C[C@@H]2CC[C@@H](C)[C@@](O)(O2)C(=O)C(=O)N2CCCC[C@H]2C(=O)O[C@H]([C@H](C)C[C@@H]2CC[C@@H](OCCO)[C@H](OC)C2)CC(=O)[C@H](C)/C=C(\C)[C@@H](O)[C@@H](OC)C(=O)[C@H](C)C[C@H](C)/C=C/C=C/C=C/1C [everolimus] + CCCCCCCCCCCC1=C(O)C(=O)C=C(O)C1=O [Embelin] (first compound 0.02 µM, partner dose 1.2 µM) | 98.4% |
| CO[C@H]1C[C@@H]2CC[C@@H](C)[C@@](O)(O2)C(=O)C(=O)N2CCCC[C@H]2C(=O)O[C@H]([C@H](C)C[C@@H]2CC[C@@H](OCCO)[C@H](OC)C2)CC(=O)[C@H](C)/C=C(\C)[C@@H](O)[C@@H](OC)C(=O)[C@H](C)C[C@H](C)/C=C/C=C/C=C/1C [everolimus] + COC(=O)c1sccc1S(=O)(=O)Nc1ccc(Nc2ccccc2)cc1OC [GSK0660] (first compound 0.02 µM, partner dose 1 µM) | 54.2% |
| CO[C@H]1C[C@@H]2CC[C@@H](C)[C@@](O)(O2)C(=O)C(=O)N2CCCC[C@H]2C(=O)O[C@H]([C@H](C)C[C@@H]2CC[C@@H](OCCO)[C@H](OC)C2)CC(=O)[C@H](C)/C=C(\C)[C@@H](O)[C@@H](OC)C(=O)[C@H](C)C[C@H](C)/C=C/C=C/C=C/1C [everolimus] + C[C@@H]1CCN(C(=O)CC#N)C[C@@H]1N(C)c1ncnc2[nH]ccc12 [CP690550] (first compound 0.02 µM, partner dose 1 µM) | 58.1% |
| CO[C@H]1C[C@@H]2CC[C@@H](C)[C@@](O)(O2)C(=O)C(=O)N2CCCC[C@H]2C(=O)O[C@H]([C@H](C)C[C@@H]2CC[C@@H](OCCO)[C@H](OC)C2)CC(=O)[C@H](C)/C=C(\C)[C@@H](O)[C@@H](OC)C(=O)[C@H](C)C[C@H](C)/C=C/C=C/C=C/1C [everolimus] + Oc1cc(-c2nc(-c3ccccc3)[nH]c2-c2ccncc2)ccc1Cl [L779450] (first compound 0.02 µM, partner dose 0.2 µM) | 60.9% |
| CO[C@H]1C[C@@H]2CC[C@@H](C)[C@@](O)(O2)C(=O)C(=O)N2CCCC[C@H]2C(=O)O[C@H]([C@H](C)C[C@@H]2CC[C@@H](OCCO)[C@H](OC)C2)CC(=O)[C@H](C)/C=C(\C)[C@@H](O)[C@@H](OC)C(=O)[C@H](C)C[C@H](C)/C=C/C=C/C=C/1C [everolimus] + Cn1cncc1[C@@](N)(c1ccc(Cl)cc1)c1ccc2c(c1)c(-c1cccc(Cl)c1)cc(=O)n2C [tipifarnib] (first compound 0.02 µM, partner dose 0.01 µM) | 49.1% |

A second format for part of the listing above.
Compound	cleaved PARP positive nuclei fraction
CO[C@H]1C[C@@H]2CC[C@@H](C)[C@@](O)(O2)C(=O)C(=O)N2CCCC[C@H]2C(=O)O[C@H]([C@H](C)C[C@@H]2CC[C@@H](OCCO)[C@H](OC)C2)CC(=O)[C@H](C)/C=C(\C)[C@@H](O)[C@@H](OC)C(=O)[C@H](C)C[C@H](C)/C=C/C=C/C=C/1C [everolimus] + COc1ccc(COc2ccc(Cc3cnc(N)nc3N)cc2OC)cc1 [GW2580] (first compound 0.02 µM, partner dose 1 µM)	32.3%
CO[C@H]1C[C@@H]2CC[C@@H](C)[C@@](O)(O2)C(=O)C(=O)N2CCCC[C@H]2C(=O)O[C@H]([C@H](C)C[C@@H]2CC[C@@H](OCCO)[C@H](OC)C2)CC(=O)[C@H](C)/C=C(\C)[C@@H](O)[C@@H](OC)C(=O)[C@H](C)C[C@H](C)/C=C/C=C/C=C/1C [everolimus] + CCN(CC)CCCCNc1ncc2cc(-c3cc(OC)cc(OC)c3)c(NC(=O)NC(C)(C)C)nc2n1 [PD173074] (first compound 0.02 µM, partner dose 0.1 µM)	109%
